Results are given in words; binding and its absence hold for the method and conditions named. Binding seen in cells or lysates may run through a third protein. Some entries that bind do so weakly or less than the wild type. For part of these data: Sequences can lack the tags named with a protein.
Experiments:
D2 dopamine receptor = D2 dopamine receptor (UniProt P14416); experiment: FRET or BRET; BRET-based D2 dopamine receptor assay; details only in Fig. S2D and the supplementary methods (not shown)
GFP-tagged RGS19 = target: T1, GFP-tagged RGS19 (UniProt P49795); experiment: co-IP; HEK293T cells co-transfected with the GFP-tagged bait and a Gαo variant; IP of the GFP-tagged bait with a nanobody against GFP; western blot with antibodies against Gαo and GFP; quantified
T1 sequence: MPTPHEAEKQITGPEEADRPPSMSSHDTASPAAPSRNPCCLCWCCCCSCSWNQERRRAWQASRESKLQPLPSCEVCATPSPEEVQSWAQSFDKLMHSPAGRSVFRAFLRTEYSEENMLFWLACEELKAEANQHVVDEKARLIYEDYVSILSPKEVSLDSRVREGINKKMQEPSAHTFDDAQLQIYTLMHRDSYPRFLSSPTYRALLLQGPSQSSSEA

The chains behind the UniProt entries cited, without tags or fusion partners. Where a name states a change or a piece, a line headed by the entry shows the natural chain unless it says otherwise.
UniProt P14416: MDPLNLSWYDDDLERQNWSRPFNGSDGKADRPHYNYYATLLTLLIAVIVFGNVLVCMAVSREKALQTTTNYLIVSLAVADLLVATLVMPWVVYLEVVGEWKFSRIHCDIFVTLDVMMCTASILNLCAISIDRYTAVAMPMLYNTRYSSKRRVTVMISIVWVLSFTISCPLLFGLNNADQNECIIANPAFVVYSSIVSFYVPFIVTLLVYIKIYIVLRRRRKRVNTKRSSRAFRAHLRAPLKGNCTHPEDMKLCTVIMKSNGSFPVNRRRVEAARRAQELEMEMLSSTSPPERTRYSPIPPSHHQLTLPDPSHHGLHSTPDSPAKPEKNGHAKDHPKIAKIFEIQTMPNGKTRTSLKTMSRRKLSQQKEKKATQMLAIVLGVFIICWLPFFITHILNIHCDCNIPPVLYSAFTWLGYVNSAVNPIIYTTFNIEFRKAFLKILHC
UniProt Q9NPQ8: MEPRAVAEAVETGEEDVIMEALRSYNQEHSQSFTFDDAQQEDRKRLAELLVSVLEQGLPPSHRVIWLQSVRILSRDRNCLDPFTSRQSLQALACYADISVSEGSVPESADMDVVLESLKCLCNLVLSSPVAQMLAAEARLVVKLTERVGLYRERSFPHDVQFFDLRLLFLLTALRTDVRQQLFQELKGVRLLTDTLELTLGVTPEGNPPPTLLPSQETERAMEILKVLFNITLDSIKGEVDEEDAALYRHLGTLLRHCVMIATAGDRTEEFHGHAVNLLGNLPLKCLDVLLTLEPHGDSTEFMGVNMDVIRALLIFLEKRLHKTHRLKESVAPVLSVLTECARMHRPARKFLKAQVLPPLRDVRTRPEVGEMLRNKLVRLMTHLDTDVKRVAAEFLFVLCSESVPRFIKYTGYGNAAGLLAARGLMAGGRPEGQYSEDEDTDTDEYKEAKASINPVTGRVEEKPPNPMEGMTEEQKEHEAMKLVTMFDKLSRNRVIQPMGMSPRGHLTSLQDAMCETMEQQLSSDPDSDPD
UniProt P16520: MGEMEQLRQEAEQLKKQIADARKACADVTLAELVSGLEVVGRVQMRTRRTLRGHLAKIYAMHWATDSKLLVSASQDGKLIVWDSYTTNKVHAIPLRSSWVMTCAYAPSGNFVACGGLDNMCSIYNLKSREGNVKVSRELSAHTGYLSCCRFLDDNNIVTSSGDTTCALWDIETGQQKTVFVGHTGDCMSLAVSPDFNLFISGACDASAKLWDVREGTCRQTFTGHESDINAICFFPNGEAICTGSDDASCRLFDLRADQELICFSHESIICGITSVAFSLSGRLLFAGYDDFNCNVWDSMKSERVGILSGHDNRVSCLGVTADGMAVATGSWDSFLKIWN
UniProt P09471: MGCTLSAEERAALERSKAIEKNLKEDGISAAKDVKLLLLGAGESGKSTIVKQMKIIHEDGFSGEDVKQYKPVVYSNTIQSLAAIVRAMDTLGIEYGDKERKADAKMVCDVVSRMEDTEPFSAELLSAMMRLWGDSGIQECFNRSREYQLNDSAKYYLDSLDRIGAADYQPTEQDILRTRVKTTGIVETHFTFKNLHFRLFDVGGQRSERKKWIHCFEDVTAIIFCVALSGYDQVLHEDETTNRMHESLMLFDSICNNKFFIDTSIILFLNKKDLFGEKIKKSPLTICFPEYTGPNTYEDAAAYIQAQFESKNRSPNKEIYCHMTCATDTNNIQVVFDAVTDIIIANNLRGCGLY

GFP-tagged Ric8A = GFP-tagged Ric8A (UniProt Q9NPQ8); experiment: as above
Gβ3γ9 = Gβ3γ9 (UniProt P16520); experiment: FRET or BRET; BRET-based Gβ3γ9 displacement assay; details only in Fig. S2B and the supplementary methods (not shown)
GFP-tagged Ric8B = target: T2, GFP-tagged Ric8B (UniProt Q9NVN3); experiment: co-IP; HEK293T cells co-transfected with the GFP-tagged bait and a Gαo variant; IP of the GFP-tagged bait with a nanobody against GFP; western blot with antibodies against Gαo and GFP; quantified
T2 sequence: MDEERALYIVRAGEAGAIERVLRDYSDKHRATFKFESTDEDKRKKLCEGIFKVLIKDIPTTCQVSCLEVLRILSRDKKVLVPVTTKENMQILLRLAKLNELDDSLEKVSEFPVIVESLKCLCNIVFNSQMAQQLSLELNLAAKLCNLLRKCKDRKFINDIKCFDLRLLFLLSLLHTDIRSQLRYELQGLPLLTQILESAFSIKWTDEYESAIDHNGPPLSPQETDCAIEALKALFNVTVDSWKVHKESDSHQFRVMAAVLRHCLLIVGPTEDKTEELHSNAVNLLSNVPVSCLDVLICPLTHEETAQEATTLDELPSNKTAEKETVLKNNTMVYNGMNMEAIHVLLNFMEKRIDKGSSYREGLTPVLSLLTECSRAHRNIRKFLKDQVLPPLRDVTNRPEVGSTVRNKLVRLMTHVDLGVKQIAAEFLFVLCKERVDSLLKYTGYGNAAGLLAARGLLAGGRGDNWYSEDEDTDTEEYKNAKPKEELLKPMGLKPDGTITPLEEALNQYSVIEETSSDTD

binding (D2 dopamine receptor) | binding (GFP-tagged RGS19) | binding (GFP-tagged Ric8A) | binding (Gβ3γ9) | binding (GFP-tagged Ric8B) | Substance
binds | binds | binds weakly | binds |  | G protein alpha subunit o (Gαo) wild-type (from UniProt P09471-1 1-354)
binds weakly |  | binds |  | binds | Gαo F251L (GNAO1 c.751T > C; p.Phe251Leu) (from UniProt P09471-1 1-354)

Continued, substance first:

Substance | binding (D2 dopamine receptor) | binding (GFP-tagged RGS19) | binding (GFP-tagged Ric8A) | binding (Gβ3γ9) | binding (GFP-tagged Ric8B)
Gαo E246K (NEDIM-associated variant) (from UniProt P09471 1-354) |  |  |  | binds | 
Gαo G203R (DEE17-linked mutant used as control) (from UniProt P09471 1-354) |  |  |  |  | binds
Gαo S264F (GNAO1 c.791C > T; p.Ser264Phe) (from UniProt P09471-1 1-354) | binds weakly |  | binds weakly | binds | 

— article PMC12124604
